# Assay results taken from the supplement of paper PMC8728848.
# The list shows a part of the results.
# Legend:
# Assay in all cases: glycan array binding signal (z-score within array); higher = stronger binding
# Conditions in all cases: glycan notation: IUPAC condensed, linker removed
# [1] = target: Fuc(a1-2)[GalNAc(a1-3)]Gal(b1-3)GlcNAc(b1-3)GalNAc
# How it was run: (§1)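 Glycan array data were curated from 3228 arrays in the Consortium for Functional Glycomics database and kept only where the protein sequence was available. Glycan names were converted to IUPAC-condensed notation, and columns mapping to the same glycan were averaged. The binding signal is a within-array Z-score, averaged across arrays of the same protein sequence at different concentrations or buffers and across linkers. Negative Z-scores can be read as non-binding.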
# [2] = target: Fuc(a1-2)[GalNAc(a1-3)]Gal(b1-3)GlcNAc(b1-6)GalNAc
# How it was run: as §1
# [3] = target: Fuc(a1-2)[GalNAc(a1-3)]Gal(b1-4)Glc
# How it was run: as §1
# [4] = target: Fuc(a1-2)[GalNAc(a1-3)]Gal(b1-4)GlcNAc
# How it was run: as §1
# [5] = target: Fuc(a1-2)[GalNAc(a1-3)]Gal(b1-4)GlcNAc(b1-2)Man
# How it was run: as §1
# [6] = target: Fuc(a1-2)[GalNAc(a1-3)]Gal(b1-4)GlcNAc(b1-2)Man(a1-3)[Fuc(a1-2)[GalNAc(a1-3)]Gal(b1-4)GlcNAc(b1-2)Man(a1-6)]Man(b1-4)GlcNAc(b1-4)GlcNAc
# How it was run: as §1
# [7] = target: Fuc(a1-2)[GalNAc(a1-3)]Gal(b1-4)GlcNAc(b1-2)Man(a1-3)[Fuc(a1-2)[GalNAc(a1-3)]Gal(b1-4)GlcNAc(b1-2)Man(a1-6)]Man(b1-4)GlcNAc(b1-4)[Fuc(a1-6)]GlcNAc
# How it was run: as §1
# [8] = target: Fuc(a1-2)[GalNAc(a1-3)]Gal(b1-4)GlcNAc(b1-3)Gal(b1-4)GlcNAc
# How it was run: as §1
# [9] = target: Fuc(a1-2)[GalNAc(a1-3)]Gal(b1-4)GlcNAc(b1-3)Gal(b1-4)GlcNAc(b1-3)Gal(b1-4)GlcNAc
# How it was run: as §1
# [10] = target: Fuc(a1-2)[GalNAc(a1-3)]Gal(b1-4)GlcNAc(b1-3)GalNAc
# How it was run: as §1
# [11] = target: Fuc(a1-2)[GalNAc(a1-3)]Gal(b1-4)GlcNAc(b1-3)[Fuc(a1-2)[GalNAc(a1-3)]Gal(b1-4)GlcNAc(b1-6)]GalNAc
# How it was run: as §1
# [12] = target: Fuc(a1-2)[GalNAc(a1-3)]Gal(b1-4)GlcNAc(b1-6)GalNAc
# How it was run: as §1
# [13] = target: Fuc(a1-2)[GalNAc(a1-3)]Gal(b1-4)[Fuc(a1-3)]GlcNAc
# How it was run: as §1
# [14] = target: Fuc(a1-2)[GalNAc(a1-3)]Gal(b1-4)[Fuc(a1-3)]GlcNAc(b1-3)GalNAc
# How it was run: as §1
# [15] = target: Fuc(a1-2)[GalNAc(a1-4)]Gal(b1-4)GlcNAc
# How it was run: as §1
# [16] = target: Fuc(a1-2)[GalNAc(b1-3)]Gal
# How it was run: as §1
# [17] = target: Fuc(a1-3)GlcNAc
# How it was run: as §1
# [18] = target: Fuc(a1-3)[Gal(b1-4)]Glc6S
# How it was run: as §1
# [19] = target: Fuc(a1-3)[Gal(b1-4)]GlcNAc
# How it was run: as §1
# [20] = target: Fuc(a1-3)[Gal(b1-4)]GlcNAc(b1-2)Man
# How it was run: as §1
# [21] = target: Fuc(a1-3)[Gal(b1-4)]GlcNAc(b1-2)Man(a1-3)[Fuc(a1-3)[Gal(b1-4)]GlcNAc(b1-2)Man(a1-6)]Man(b1-4)GlcNAc(b1-4)GlcNAc
# How it was run: as §1
# [22] = target: Fuc(a1-3)[Gal(b1-4)]GlcNAc(b1-2)Man(a1-3)[Fuc(a1-3)[Gal(b1-4)]GlcNAc(b1-2)Man(a1-6)]Man(b1-4)GlcNAc(b1-4)[Fuc(a1-6)]GlcNAc
# How it was run: as §1
# [23] = target: Fuc(a1-3)[Gal(b1-4)]GlcNAc(b1-3)Gal(b1-3)[Fuc(a1-4)]GlcNAc
# How it was run: as §1
# [24] = target: Fuc(a1-3)[Gal(b1-4)]GlcNAc(b1-3)Gal(b1-4)[Fuc(a1-3)]GlcNAc
# How it was run: as §1
# [25] = target: Fuc(a1-3)[Gal(b1-4)]GlcNAc(b1-3)Gal(b1-4)[Fuc(a1-3)]GlcNAc(b1-3)Gal(b1-4)[Fuc(a1-3)]GlcNAc
# How it was run: as §1
# [26] = target: Fuc(a1-3)[Gal(b1-4)]GlcNAc(b1-3)GalNAc
# How it was run: as §1
# [27] = target: Fuc(a1-3)[Gal(b1-4)]GlcNAc(b1-6)GalNAc
# How it was run: as §1
# [28] = target: Fuc(a1-3)[Gal(b1-4)]GlcNAc(b1-6)[Gal(b1-3)GlcNAc(b1-3)]Gal(b1-4)Glc
# How it was run: as §1
# [29] = target: Fuc(a1-3)[Gal(b1-4)]GlcNAc6S
# How it was run: as §1
# [30] = target: Fuc(a1-3)[Gal3S(b1-4)]Glc
# How it was run: as §1
# [31] = target: Fuc(a1-3)[Gal3S(b1-4)]GlcNAc
# How it was run: as §1
# [32] = target: Fuc(a1-3)[Gal3S(b1-4)]GlcNAc6S
# How it was run: as §1
# [33] = target: Fuc(a1-3)[GalNAc(b1-4)]GlcNAc
# How it was run: as §1
# [34] = target: Fuc(a1-3)[GalNAc(b1-4)]GlcNAc6S
# How it was run: as §1
# [35] = target: Fuc(a1-4)GlcNAc
# How it was run: as §1
# [36] = target: Fuc(b1-3)GlcNAc
# How it was run: as §1
# [37] = target: Gal(a1-2)Gal
# How it was run: as §1
# [38] = target: Gal(a1-3)Gal
# How it was run: as §1
# [39] = target: Gal(a1-3)Gal(b1-3)GlcNAc
# How it was run: as §1
# [40] = target: Gal(a1-3)Gal(b1-3)GlcNAc(b1-2)Man
# How it was run: as §1
# [41] = target: Gal(a1-3)Gal(b1-3)GlcNAc(b1-2)Man(a1-3)[Gal(a1-3)Gal(b1-3)GlcNAc(b1-2)Man(a1-6)]Man(b1-4)GlcNAc(b1-4)GlcNAc
# How it was run: as §1
# [42] = target: Gal(a1-3)Gal(b1-3)GlcNAc(b1-3)GalNAc
# How it was run: as §1
# [43] = target: Gal(a1-3)Gal(b1-3)GlcNAc(b1-6)GalNAc
# How it was run: as §1
# [44] = target: Gal(a1-3)Gal(b1-3)[Fuc(a1-4)]GlcNAc(b1-2)Man(a1-3)[Gal(a1-3)Gal(b1-3)[Fuc(a1-4)]GlcNAc(b1-2)Man(a1-6)]Man(b1-4)GlcNAc(b1-4)GlcNAc
# How it was run: as §1
# [45] = target: Gal(a1-3)Gal(b1-4)Glc
# How it was run: as §1
binder,measurement,setting,value
"cFel (Cyprinus carpio), P68512 (protein) LDCTVIDGNLKQIDAGSGSVVGVNNLNETFVLIDNVFTKISGSLKHFSVGPAGQLGVNTANNIFKYQSGGFVQLAGLLKQVDAGGDQIIAGVNMYDDIYCLNMDANNKWPSSNTPWVQINGKLKYYSCGPYSCWGVNSNDQIFIMKDVSSNVCSGSGSFINIPGLLSMIEVATDGSVFGVNSQGNLYQRTGVTRSKPDGTDWISMVACPNGHKHVSFDLGVLWLVCVDGSIRKCILTD",glycan array binding signal (z-score),[1],-2.04
same,glycan array binding signal (z-score),[2],2.93
same,glycan array binding signal (z-score),[3],-0.564
same,glycan array binding signal (z-score),[4],-0.741
same,glycan array binding signal (z-score),[5],-1.18
same,glycan array binding signal (z-score),[6],0.117
same,glycan array binding signal (z-score),[7],-0.798
same,glycan array binding signal (z-score),[8],-0.966
same,glycan array binding signal (z-score),[9],0.538
same,glycan array binding signal (z-score),[10],1.01
same,glycan array binding signal (z-score),[11],1.31
same,glycan array binding signal (z-score),[12],0.59
same,glycan array binding signal (z-score),[13],-1.53
same,glycan array binding signal (z-score),[14],-0.096
same,glycan array binding signal (z-score),[15],0.222
same,glycan array binding signal (z-score),[16],1.52
same,glycan array binding signal (z-score),[17],-1.02
same,glycan array binding signal (z-score),[18],0.408
same,glycan array binding signal (z-score),[19],-0.26
same,glycan array binding signal (z-score),[20],1.26
same,glycan array binding signal (z-score),[21],1.84
same,glycan array binding signal (z-score),[22],0.633
same,glycan array binding signal (z-score),[23],0.265
same,glycan array binding signal (z-score),[24],-0.327
same,glycan array binding signal (z-score),[25],-0.301
same,glycan array binding signal (z-score),[26],-0.581
same,glycan array binding signal (z-score),[27],0.701
same,glycan array binding signal (z-score),[28],0.837
same,glycan array binding signal (z-score),[29],0.043
same,glycan array binding signal (z-score),[30],-0.663
same,glycan array binding signal (z-score),[31],1.83
same,glycan array binding signal (z-score),[32],-0.671
same,glycan array binding signal (z-score),[33],1.39
same,glycan array binding signal (z-score),[34],-0.354
same,glycan array binding signal (z-score),[35],-0.963
same,glycan array binding signal (z-score),[36],0.178
same,glycan array binding signal (z-score),[37],0.284
same,glycan array binding signal (z-score),[38],-1.12
same,glycan array binding signal (z-score),[39],-0.677
same,glycan array binding signal (z-score),[40],0.809
same,glycan array binding signal (z-score),[41],-0.427
same,glycan array binding signal (z-score),[42],-0.742
same,glycan array binding signal (z-score),[43],0.326
same,glycan array binding signal (z-score),[44],1.49
same,glycan array binding signal (z-score),[45],-0.401

# An excerpt of these results, tab-delimited.
binder	measurement	setting	value
cFel (Cyprinus carpio), P68512 (protein) LDCTVIDGNLKQIDAGSGSVVGVNNLNETFVLIDNVFTKISGSLKHFSVGPAGQLGVNTANNIFKYQSGGFVQLAGLLKQVDAGGDQIIAGVNMYDDIYCLNMDANNKWPSSNTPWVQINGKLKYYSCGPYSCWGVNSNDQIFIMKDVSSNVCSGSGSFINIPGLLSMIEVATDGSVFGVNSQGNLYQRTGVTRSKPDGTDWISMVACPNGHKHVSFDLGVLWLVCVDGSIRKCILTD	glycan array binding signal (z-score)	[20]	1.26
same	glycan array binding signal (z-score)	[30]	-0.663
same	glycan array binding signal (z-score)	[42]	-0.742
